Source: patent publication USRE44768E1, “Rapamycin hydroxyesters” (Wyeth LLC, priority 1994, dated 2014)
For at least one compound, name, drawing or mass did not settle the structure.

System: adjuvant arthritis (uninjected hind paw, T-cell mediated inflammation)
Test: adjuvant arthritis standard pharmacological test procedure
Assay type: in vivo, male inbread Wistar Lewis rats
Details: uninjected paw at day 16 versus control; oral dose of 5 mg/kg
Method: The adjuvant arthritis standard pharmacological test procedure measures the ability of test compounds to prevent immune mediated inflammation and inhibit or treat rheumatoid arthritis. The following briefly describes the test procedure used. A group of rats (male inbread Wistar Lewis rats) are pre-treated with the compound to be tested (1 h prior to antigen) and then injected with Freud's Complete Adjuvant (FCA) in the right hind paw to induce arthritis. The rats are then orally dosed on a Monday, Wednesday, Friday schedule from day 0-14 for […]. Both hind paws are measured on days 16, 23, and 30. The difference in paw volume (mL) from day 16 to day 0 is determined and a percent change from control is obtained. […] The right hind paw inflammation, on the other hand, is caused by non-specific inflammation. Compounds were tested at a dose of 5 mg/kg.

SMILES: CO[C@H]1C[C@@H]2CC[C@@H](C)[C@@](O)(O2)C(=O)C(=O)N2CCCC[C@H]2C(=O)O[C@H]([C@H](C)C[C@@H]2CC[C@@H](O)[C@H](OC)C2)CC(=O)[C@H](C)/C=C(\C)[C@@H](O)[C@@H](OC)C(=O)[C@H](C)C[C@H](C)/C=C/C=C/C=C/1C [rapamycin, Rapamycin]
- Percent change in adjuvant arthritis versus control: −70% mid −90
